Laboratory results from US6472200B1, “Device and method for performing a biological modification of a fluid” (Yissum Research Development Company of the Hebrew …, priority 1998, dated 2002).
Counter-ions that a name gives are not always drawn. Like-named read-outs stand apart in the source and are kept apart here.

Test system: P450

**Q.** Which results are given for `CCN(CC)CC(=O)Nc1c(C)cccc1C` [LIGNOCAINE-HCl, lignocaine-HCl]?
**A.** LIGNOCAINE-HCl in culture medium (0 hours, 80 μg/ml added at the beginning, 4 liver MCs per ml): 62.2 µg/mL; LIGNOCAINE-HCl in culture medium (7.1 hours): 33.9 µg/mL; LIGNOCAINE-HCl in culture medium (24.1 hours): 23.7 µg/mL; LIGNOCAINE-HCl in culture medium (30.1 hours): 20.9 µg/mL; Concentration of lignocaine in culture medium (course) (liver MCs ex vivo): declined for 30 hours
